Results are given in words; binding and its absence hold for the method and conditions named. Binding seen in cells or lysates may run through a third protein. Binding can be weak; no strength is given.
Assays:
[1] = biological target: T1, DDX52 (DExD-box helicase 52) (human (endogenous in Jurkat J6)) (UniProt Q9Y2R4); test: co-IP; Jurkat J6 cells infected with HIV-1 NL4.3 at 0.5 MOI, harvested 48 hpi; lysates precleared with IgG, primary antibody (DDX52, Vif or A3G) overnight at 4 °C, Agarose A/G beads 4 h; washed thrice with 0.1% NP40 in 1X PBS; immunoblot
T1 sequence: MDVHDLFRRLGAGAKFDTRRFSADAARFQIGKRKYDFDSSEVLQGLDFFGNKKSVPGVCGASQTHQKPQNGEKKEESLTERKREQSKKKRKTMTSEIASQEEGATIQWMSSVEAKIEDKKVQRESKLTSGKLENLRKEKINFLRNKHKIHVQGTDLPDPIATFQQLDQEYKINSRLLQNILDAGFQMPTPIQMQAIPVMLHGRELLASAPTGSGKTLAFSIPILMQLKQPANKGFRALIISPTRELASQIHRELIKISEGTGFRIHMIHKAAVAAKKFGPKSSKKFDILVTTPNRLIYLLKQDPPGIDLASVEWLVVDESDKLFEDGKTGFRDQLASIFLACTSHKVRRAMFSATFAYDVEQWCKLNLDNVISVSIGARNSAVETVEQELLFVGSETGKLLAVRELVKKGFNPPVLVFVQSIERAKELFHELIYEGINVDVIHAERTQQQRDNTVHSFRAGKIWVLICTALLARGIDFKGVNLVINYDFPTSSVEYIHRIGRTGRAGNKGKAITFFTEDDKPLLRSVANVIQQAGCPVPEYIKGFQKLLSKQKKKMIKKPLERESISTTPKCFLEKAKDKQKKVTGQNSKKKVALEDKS

[2] = biological target: HIV-1 viral infectivity factor (Vif) (HIV-1 NL4.3); test: as above

For HIV-1 viral infectivity factor (Vif), the binding [1] was “binds”.

B1: DDX52 (DExD-box helicase 52) (protein, UniProt Q9Y2R4 1-599)
chain: MDVHDLFRRLGAGAKFDTRRFSADAARFQIGKRKYDFDSSEVLQGLDFFGNKKSVPGVCGASQTHQKPQNGEKKEESLTERKREQSKKKRKTMTSEIASQEEGATIQWMSSVEAKIEDKKVQRESKLTSGKLENLRKEKINFLRNKHKIHVQGTDLPDPIATFQQLDQEYKINSRLLQNILDAGFQMPTPIQMQAIPVMLHGRELLASAPTGSGKTLAFSIPILMQLKQPANKGFRALIISPTRELASQIHRELIKISEGTGFRIHMIHKAAVAAKKFGPKSSKKFDILVTTPNRLIYLLKQDPPGIDLASVEWLVVDESDKLFEDGKTGFRDQLASIFLACTSHKVRRAMFSATFAYDVEQWCKLNLDNVISVSIGARNSAVETVEQELLFVGSETGKLLAVRELVKKGFNPPVLVFVQSIERAKELFHELIYEGINVDVIHAERTQQQRDNTVHSFRAGKIWVLICTALLARGIDFKGVNLVINYDFPTSSVEYIHRIGRTGRAGNKGKAITFFTEDDKPLLRSVANVIQQAGCPVPEYIKGFQKLLSKQKKKMIKKPLERESISTTPKCFLEKAKDKQKKVTGQNSKKKVALEDKS
In the case of B1, the binding [2] is reported as “binds”.

Source: paper PMC11867528
